Laboratory results from patent US9980943B2, “Methods of treating muscular dystrophy” (BOARD OF REGENTS OF THE NEVADA SYSTEM OF HIGHER EDUCATION, …, priority 2013, dated 2018).
At least one read-out could not be matched to a standard name with certainty.

Test system: β-galactosidase in CMV-LacZ C2C12 myotubes
Test: CMV-LacZ secondary screen in C2C12 myotubes (β-Gal stabilizing assay)
Assay type: cell-based, mouse
Conditions: fold relative to DMSO
Excerpt: In order to determine compounds that acted to stabilize β-gal in myogenic cells, a CMV-LacZ C2C12 cell line was used in a secondary screen. The EGFP gene from the pEGFP (Clontech) vector was replaced by LACZ PCR product with digests of the vector/PCR product performed using EcoRI (NEB) and NotI (NEB) and ligated using T4 DNA Ligase (NEB) following standard procedures to produce the CMV-LACZ vector. The LACZ gene was generated by PCR from the pBK-RSV (Stratagene) vector using primers LACZ EcoRI F- and LACZ NotI R-. The CMV-LACZ vector was then digested with AfIII (NEB) to linearize the construct, which was then transfected in C2C12 myoblasts using Lipofectamine 2000 (Invitrogen) following the manufacturer's instructions. […] Clonal lines were selected and screened for βgal levels using the myoblast FDG assay.
The assays were used the original 96-well format and new dose-response curves for myoblasts (N=3-6 replicates for each data point), myotubes (N=3-6 replicates for data point), and CMV-LacZ secondary assay (N=2 replicates for each data point) using concentrations of 0.5 μM, 1 μM, 5 μM, 10 μM, 20 μM, and 40 μM (Tables 9-16).

CCOC(=O)C1CCCN(C(=O)CNS(=O)(=O)c2ccc(Br)s2)C1 (stereo not shown) [MLS000086970-01]
CMV-LACZ in Myotubes, signal relative to DMSO (5 uM): 0.9541
CMV-LACZ in Myotubes, signal relative to DMSO (10 uM): 1.186
CMV-LACZ in Myotubes, signal relative to DMSO (20 uM): 0.9395
CMV-LACZ in Myotubes, signal relative to DMSO (40 uM): 0.8273
